Results as given in paper PMC4742742.
Results are given in words; binding and its absence hold for the method and conditions named. In cells and extracts the contact can be indirect. Some binding calls cover weakened binding; strength is not graded here.

Assays:
[1] = target: Extracellular fibrinogen-binding protein (Efb), recombinant full-length Efb (residues 29-165), His-tagged (Staphylococcus aureus); experiment: pull-down; His-tagged Efb or Efb-N on His-Select HF nickel affinity gel; human platelet lysate (ultrasonication) without added fibrinogen; immunoblot; only the target purified
[2] = target: N-terminal region of Efb (Efb-N), recombinant residues 29-103, His-tagged (Staphylococcus aureus); experiment: as above
[3] = target: Extracellular fibrinogen-binding protein (Efb), recombinant full-length Efb (residues 29-165), His-tagged (Staphylococcus aureus); experiment: pull-down; His-tagged Efb or Efb-N on His-Select HF nickel affinity gel; human platelet lysate (ultrasonication) with 3 mg/ml added fibrinogen; immunoblot; only the target purified
[4] = target: N-terminal region of Efb (Efb-N), recombinant residues 29-103, His-tagged (Staphylococcus aureus); experiment: as above

Measured: binding

B1: Multimerin-1 (protein, UniProt Q13201 20-1228)
chain: LNNSKHSWTIPEDGNSQKTMPSASVPPNKIQSLQILPTTRVMSAEIATTPEARTSEDSLLKSTLPPSETSAPAEGVRNQTLTSTEKAEGVVKLQNLTLPTNASIKFNPGAESVVLSNSTLKFLQSFARKSNEQATSLNTVGGTGGIGGVGGTGGVGNRAPRETYLSRGDSSSSQRTDYQKSNFETTRGKNWCAYVHTRLSPTVILDNQVTYVPGGKGPCGWTGGSCPQRSQKISNPVYRMQHKIVTSLDWRCCPGYSGPKCQLRAQEQQSLIHTNQAESHTAVGRGVAEQQQQQGCGDPEVMQKMTDQVNYQAMKLTLLQKKIDNISLTVNDVRNTYSSLEGKVSEDKSREFQSLLKGLKSKSINVLIRDIVREQFKIFQNDMQETVAQLFKTVSSLSEDLESTRQIIQKVNESVVSIAAQQKFVLVQENRPTLTDIVELRNHIVNVRQEMTLTCEKPIKELEVKQTHLEGALEQEHSRSILYYESLNKTLSKLKEVHEQLLSTEQVSDQKNAPAAESVSNNVTEYMSTLHENIKKQSLMMLQMFEDLHIQESKINNLTVSLEMEKESLRGECEDMLSKCRNDFKFQLKDTEENLHVLNQTLAEVLFPMDNKMDKMSEQLNDLTYDMEILQPLLEQGASLRQTMTYEQPKEAIVIRKKIENLTSAVNSLNFIIKELTKRHNLLRNEVQGRDDALERRINEYALEMEDGLNKTMTIINNAIDFIQDNYALKETLSTIKDNSEIHHKCTSDMETILTFIPQFHRLNDSIQTLVNDNQRYNFVLQVAKTLAGIPRDEKLNQSNFQKMYQMFNETTSQVRKYQQNMSHLEEKLLLTTKISKNFETRLQDIESKVTQTLIPYYISVKKGSVVTNERDQALQLQVLNSRFKALEAKSIHLSINFFSLNKTLHEVLTMCHNASTSVSELNATIPKWIKHSLPDIQLLQKGLTEFVEPIIQIKTQAALSNLTCCIDRSLPGSLANVVKSQKQVKSLPKKINALKKPTVNLTTVLIGRTQRNTDNIIYPEEYSSCSRHPCQNGGTCINGRTSFTCACRHPFTGDNCTIKLVEENALAPDFSKGSYRYAPMVAFFASHTYGMTIPGPILFNNLDVNYGASYTPRTGKFRIPYLGVYVFKYTIESFSAHISGFLVVDGIDKLAFESENINSEIHCDRVLTGDALLELNYGQEVWLRLAKGTIPAKFPPVTTFSGYLLYRT
binds: all assays above
